Assay: BUP calibration: UV absorbance at 270 nm and 262 nm vs. BUP concentration in pH-2 water
Details: for Relative Absorbance Intensity at 262 nm: pH-2 water spectrum subtracted

CCCCN1CCCCC1C(=O)Nc1c(C)cccc1C (centres unmarked) [BUP free base, bupivacaine]
Relative Absorbance Intensity at 262 nm ([BUP] 0.00022364 mg/ml in pH-2 water): −0.0825
Relative Absorbance Intensity at 262 nm ([BUP] 0.0022364 mg/ml in pH-2 water): −0.1004
Relative Absorbance Intensity at 262 nm ([BUP] 0.022364 mg/ml in pH-2 water): −0.0681
Relative Absorbance Intensity at 262 nm ([BUP] 0.22364 mg/ml in pH-2 water): 0.2393
Relative Absorbance Intensity at 262 nm ([BUP] 0.72684 mg/ml in pH-2 water): 1.1347
Relative Absorbance Intensity at 262 nm ([BUP] 1.2300 mg/ml in pH-2 water): 2.0130
Relative Absorbance Intensity at 262 nm ([BUP] 2.2364 mg/ml in pH-2 water): 3.0275
Slope of linear best fit, absorption at 262 nm vs. BUP concentration (mg/ml) (pH-2 water): 1.4482

Reference: patent US12324858B2, “Pharmaceutical formulation and system and method for delivery” (Rilento Pharma, LLC, priority 2018, dated 2025)
